Here are results for one substance from PMC7840889.

The chains behind the UniProt entries cited, without tags or fusion partners. Where a name states a change or a piece, a line headed by the entry shows the natural chain unless it says otherwise.
UniProt Q92574: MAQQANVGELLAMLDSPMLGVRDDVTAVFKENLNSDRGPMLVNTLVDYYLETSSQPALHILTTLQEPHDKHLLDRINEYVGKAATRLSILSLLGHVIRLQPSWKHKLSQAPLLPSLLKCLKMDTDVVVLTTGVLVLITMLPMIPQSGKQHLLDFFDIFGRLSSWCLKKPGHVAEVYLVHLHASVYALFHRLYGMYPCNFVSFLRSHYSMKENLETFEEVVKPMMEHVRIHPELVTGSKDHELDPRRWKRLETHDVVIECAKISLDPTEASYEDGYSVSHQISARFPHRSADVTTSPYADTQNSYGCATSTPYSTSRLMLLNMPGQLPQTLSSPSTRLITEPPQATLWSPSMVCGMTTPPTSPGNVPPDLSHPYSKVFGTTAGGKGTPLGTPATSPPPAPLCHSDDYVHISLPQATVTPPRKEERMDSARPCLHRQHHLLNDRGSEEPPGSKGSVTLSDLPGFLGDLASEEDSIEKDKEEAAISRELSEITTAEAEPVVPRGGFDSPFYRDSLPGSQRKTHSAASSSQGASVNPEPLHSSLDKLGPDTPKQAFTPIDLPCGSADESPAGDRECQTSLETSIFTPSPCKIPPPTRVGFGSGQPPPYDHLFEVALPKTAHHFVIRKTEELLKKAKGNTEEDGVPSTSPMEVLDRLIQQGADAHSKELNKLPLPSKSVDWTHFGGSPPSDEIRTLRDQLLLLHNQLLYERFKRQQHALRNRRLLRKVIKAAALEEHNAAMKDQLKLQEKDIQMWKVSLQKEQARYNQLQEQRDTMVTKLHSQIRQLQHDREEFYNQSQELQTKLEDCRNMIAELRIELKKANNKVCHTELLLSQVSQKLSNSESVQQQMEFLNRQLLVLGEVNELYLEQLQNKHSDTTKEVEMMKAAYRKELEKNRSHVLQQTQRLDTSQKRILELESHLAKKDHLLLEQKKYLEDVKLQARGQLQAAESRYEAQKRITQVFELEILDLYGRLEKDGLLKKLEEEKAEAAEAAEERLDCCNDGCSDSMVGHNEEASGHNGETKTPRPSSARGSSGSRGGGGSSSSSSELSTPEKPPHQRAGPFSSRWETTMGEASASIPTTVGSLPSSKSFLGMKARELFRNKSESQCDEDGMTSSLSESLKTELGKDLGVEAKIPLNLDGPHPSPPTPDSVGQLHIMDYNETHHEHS
UniProt P49815: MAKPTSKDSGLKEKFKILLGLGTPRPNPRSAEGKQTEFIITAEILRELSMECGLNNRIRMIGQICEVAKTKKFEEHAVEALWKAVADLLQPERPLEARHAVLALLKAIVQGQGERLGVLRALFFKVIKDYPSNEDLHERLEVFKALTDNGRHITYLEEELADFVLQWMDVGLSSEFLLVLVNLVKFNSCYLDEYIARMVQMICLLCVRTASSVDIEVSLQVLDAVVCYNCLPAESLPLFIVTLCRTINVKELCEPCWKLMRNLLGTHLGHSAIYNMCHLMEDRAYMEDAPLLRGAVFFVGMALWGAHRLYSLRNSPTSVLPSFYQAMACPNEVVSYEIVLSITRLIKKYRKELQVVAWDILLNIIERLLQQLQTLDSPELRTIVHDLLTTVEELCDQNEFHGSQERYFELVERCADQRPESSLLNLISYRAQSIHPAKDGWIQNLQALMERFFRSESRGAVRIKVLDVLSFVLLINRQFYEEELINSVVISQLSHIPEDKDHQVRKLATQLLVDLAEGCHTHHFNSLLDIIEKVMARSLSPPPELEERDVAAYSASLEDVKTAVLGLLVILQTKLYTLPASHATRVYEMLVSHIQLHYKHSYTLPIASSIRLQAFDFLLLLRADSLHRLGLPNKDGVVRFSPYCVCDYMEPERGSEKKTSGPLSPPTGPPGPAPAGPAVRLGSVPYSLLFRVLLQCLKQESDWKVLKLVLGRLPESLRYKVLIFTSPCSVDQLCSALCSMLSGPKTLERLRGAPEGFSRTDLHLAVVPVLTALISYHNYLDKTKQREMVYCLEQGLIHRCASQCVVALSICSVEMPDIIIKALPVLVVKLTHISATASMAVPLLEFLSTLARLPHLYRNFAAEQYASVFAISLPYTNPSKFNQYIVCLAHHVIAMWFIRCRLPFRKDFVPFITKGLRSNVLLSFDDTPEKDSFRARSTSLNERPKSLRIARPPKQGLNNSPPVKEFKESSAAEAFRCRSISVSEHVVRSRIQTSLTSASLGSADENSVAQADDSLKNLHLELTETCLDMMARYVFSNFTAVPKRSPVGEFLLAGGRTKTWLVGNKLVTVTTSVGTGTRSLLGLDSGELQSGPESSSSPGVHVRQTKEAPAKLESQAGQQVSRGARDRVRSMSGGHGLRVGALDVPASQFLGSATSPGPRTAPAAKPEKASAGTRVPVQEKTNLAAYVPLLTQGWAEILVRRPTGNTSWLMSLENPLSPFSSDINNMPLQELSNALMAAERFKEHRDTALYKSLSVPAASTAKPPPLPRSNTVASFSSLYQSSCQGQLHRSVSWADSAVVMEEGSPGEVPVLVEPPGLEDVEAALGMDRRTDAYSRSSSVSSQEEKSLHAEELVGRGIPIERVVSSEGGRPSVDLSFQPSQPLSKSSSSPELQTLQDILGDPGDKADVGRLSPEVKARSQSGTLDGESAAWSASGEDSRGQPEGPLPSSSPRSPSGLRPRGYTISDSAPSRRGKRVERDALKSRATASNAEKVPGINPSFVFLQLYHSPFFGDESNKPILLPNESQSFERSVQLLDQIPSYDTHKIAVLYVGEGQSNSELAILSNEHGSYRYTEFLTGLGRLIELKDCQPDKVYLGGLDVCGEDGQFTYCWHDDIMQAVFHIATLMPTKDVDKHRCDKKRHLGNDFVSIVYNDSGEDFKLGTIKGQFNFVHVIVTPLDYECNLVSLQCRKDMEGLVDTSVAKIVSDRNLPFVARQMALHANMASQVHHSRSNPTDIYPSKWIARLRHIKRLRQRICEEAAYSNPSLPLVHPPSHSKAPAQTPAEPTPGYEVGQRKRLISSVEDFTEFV
UniProt Q9P0N9: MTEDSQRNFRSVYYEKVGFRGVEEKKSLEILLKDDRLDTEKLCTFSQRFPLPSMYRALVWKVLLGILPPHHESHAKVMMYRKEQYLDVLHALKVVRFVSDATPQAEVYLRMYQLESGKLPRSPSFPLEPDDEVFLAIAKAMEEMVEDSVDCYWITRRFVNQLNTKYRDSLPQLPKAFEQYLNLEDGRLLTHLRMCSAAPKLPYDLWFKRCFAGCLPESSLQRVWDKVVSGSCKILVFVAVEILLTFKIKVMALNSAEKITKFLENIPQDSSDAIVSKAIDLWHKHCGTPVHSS

Assay [1] has as its target T1, full-length human TSC protein complex (TSC1-TSC2-TBC1D7) (human) (UniProt Q92574+P49815+Q9P0N9). As to the kind of experiment: SEC; full-length TSCC on Superose 6; 20 mM Tris pH 8.0, 300 mM NaCl, 2 mM TCEP; broad peak; both purified.
The target of assay [2] is T1, full-length human TSC protein complex (TSC1-TSC2-TBC1D7) (human). The assay can be described thus: cryo-EM micrographs; TSCC at higher concentrations, vitrified; web-like networks seen in micrographs; both purified.

Results are given in words; binding and its absence hold for the method and conditions named. Some entries that bind do so weakly or less than the wild type.

As to “full-length human TSC protein complex (TSC1-TSC2-TBC1D7) (from UniProt Q92574-1 1-1164; P49815-1 1-1807; Q9P0N9 1-293)”, the binding result in assay [1] and in assay [2] was “binds” in each case.
